Test results: the supplement of paper PMC8728848
This is one part of the list.

What was measured:
Assay in all cases: glycan array binding signal (z-score within array); higher = stronger binding
Conditions in all cases: glycan notation: IUPAC condensed, linker removed
[1] = target: Neu5Ac(a2-3)Gal(b1-3)GalNAc(b1-4)[Neu5Ac(a2-8)Neu5Ac(a2-3)]Gal(b1-4)Glc
Method in brief: (§1)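 Arrays were curated from the Consortium for Functional Glycomics database, 3228 in total, and kept only where the protein sequence was available. Binding is expressed as a within-array Z-score. This score was averaged across arrays of the same protein sequence at different concentrations or buffers and across linkers, and negative values can be read as non-binding.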

[2] = target: Neu5Ac(a2-3)Gal(b1-3)GalNAc6S
Method in brief: as §1

[3] = target: Neu5Ac(a2-3)Gal(b1-3)GlcNAc
Method in brief: as §1

[4] = target: Neu5Ac(a2-3)Gal(b1-3)GlcNAc(b1-2)Man(a1-3)[Neu5Ac(a2-3)Gal(b1-3)GlcNAc(b1-2)Man(a1-6)]Man(b1-4)GlcNAc(b1-4)GlcNAc
Method in brief: as §1

[5] = target: Neu5Ac(a2-3)Gal(b1-3)GlcNAc(b1-3)Gal(b1-3)GlcNAc
Method in brief: as §1

[6] = target: Neu5Ac(a2-3)Gal(b1-3)GlcNAc(b1-3)Gal(b1-4)GlcNAc
Method in brief: as §1

[7] = target: Neu5Ac(a2-3)Gal(b1-3)GlcNAc(b1-3)GalNAc
Method in brief: as §1

[8] = target: Neu5Ac(a2-3)Gal(b1-3)GlcNAc6S
Method in brief: as §1

[9] = target: Neu5Ac(a2-3)Gal(b1-3)[Fuc(a1-4)]GlcNAc
Method in brief: as §1

[10] = target: Neu5Ac(a2-3)Gal(b1-3)[Fuc(a1-4)]GlcNAc(b1-3)Gal(b1-3)[Fuc(a1-4)]GlcNAc
Method in brief: as §1

[11] = target: Neu5Ac(a2-3)Gal(b1-3)[Fuc(a1-4)]GlcNAc(b1-3)Gal(b1-4)[Fuc(a1-3)]GlcNAc
Method in brief: as §1

[12] = target: Neu5Ac(a2-3)Gal(b1-3)[Neu5Ac(a2-3)Gal(b1-4)]GlcNAc
Method in brief: as §1

[13] = target: Neu5Ac(a2-3)Gal(b1-3)[Neu5Ac(a2-6)]GalNAc
Method in brief: as §1

[14] = target: Neu5Ac(a2-3)Gal(b1-4)Glc
Method in brief: as §1

[15] = target: Neu5Ac(a2-3)Gal(b1-4)GlcNAc
Method in brief: as §1

[16] = target: Neu5Ac(a2-3)Gal(b1-4)GlcNAc(b1-2)Man(a1-3)[GlcNAc(b1-2)Man(b1-4)GlcNAc(b1-2)Man(a1-6)]Man(b1-4)GlcNAc(b1-4)GlcNAc
Method in brief: as §1

[17] = target: Neu5Ac(a2-3)Gal(b1-4)GlcNAc(b1-2)Man(a1-3)[Neu5Ac(a2-6)Gal(b1-4)GlcNAc(b1-2)Man(a1-6)]Man(b1-4)GlcNAc(b1-4)GlcNAc
Method in brief: as §1

[18] = target: Neu5Ac(a2-3)Gal(b1-4)GlcNAc(b1-3)Gal
Method in brief: as §1

[19] = target: Neu5Ac(a2-3)Gal(b1-4)GlcNAc(b1-3)Gal(b1-3)GlcNAc
Method in brief: as §1

[20] = target: Neu5Ac(a2-3)Gal(b1-4)GlcNAc(b1-3)Gal(b1-4)GlcNAc
Method in brief: as §1

[21] = target: Neu5Ac(a2-3)Gal(b1-4)GlcNAc(b1-3)Gal(b1-4)GlcNAc(b1-3)Gal(b1-4)GlcNAc
Method in brief: as §1

[22] = target: Neu5Ac(a2-3)Gal(b1-4)GlcNAc(b1-3)Gal(b1-4)[Fuc(a1-3)]GlcNAc
Method in brief: as §1

[23] = target: Neu5Ac(a2-3)Gal(b1-4)GlcNAc(b1-3)GalNAc
Method in brief: as §1

[24] = target: Neu5Ac(a2-3)Gal(b1-4)GlcNAc(b1-6)[Gal(b1-3)]GalNAc
Method in brief: as §1

[25] = target: Neu5Ac(a2-3)Gal(b1-4)GlcNAc(b1-6)[Neu5Ac(a2-3)Gal(b1-3)]GalNAc
Method in brief: as §1

[26] = target: Neu5Ac(a2-3)Gal(b1-4)GlcNAc6S
Method in brief: as §1

[27] = target: Neu5Ac(a2-3)Gal(b1-4)[Fuc(a1-3)]GlcNAc
Method in brief: as §1

[28] = target: Neu5Ac(a2-3)Gal(b1-4)[Fuc(a1-3)]GlcNAc(b1-3)Gal
Method in brief: as §1

[29] = target: Neu5Ac(a2-3)Gal(b1-4)[Fuc(a1-3)]GlcNAc(b1-3)Gal(b1-4)GlcNAc
Method in brief: as §1

[30] = target: Neu5Ac(a2-3)Gal(b1-4)[Fuc(a1-3)]GlcNAc(b1-3)Gal(b1-4)[Fuc(a1-3)]GlcNAc(b1-3)Gal(b1-4)[Fuc(a1-3)]GlcNAc
Method in brief: as §1

B1: pullulanase (Streptococcus pyogenes), Q8KLP1 (protein)
chain: MKKKVNQGSKRYQYLLKKWGIGFVIAATGTVMLGCIPSILTHQVAAKTIVGLARDEAQQGDGNAKSGDGFQSSSKEAKPVLDSSSANPASIAEHHLRMHFKTLPAGESLGSLGLWVWGDVDQPSKDWPNGAITMTKAKKDDYGYYLDVPLAAKHRQQVSYLINNKAGENLSKDQHIPLLTPKMNEVWIDENYHAHAYRPLKKGYLRINYHNQSGHYDNLAVWTFKDVKTPTTDWPNGLDLSHKGPYGAYVDVPLKEGANEIGFLILDKSKTGDAIKVQPKDYLFKELDNHTQVFVKDTDPKVYNNPYYIDQVSLKGAEQTTPNEIKAIFTTLDGLDEDAVKQNIKITDKAGKTVAIDELTLDKDKSVMTLKGDFKAQGAVYTVTFGEVSQVARQSWQLKDKLYAYDGELGATLAKDGSVDLALWSPSADSVKVVVYDKQDQTKVVGQADLTKSDKGVWRAHLTSDSVKGISDYTGYYYLYEITRGQEKVMVLDPYAKSLAAWNDATATDDIKTAKAAFIDPSKLGPTGLDFAKINNFKKREDAIIYEAHVRDFTSDKALEGKLTHPFGTFSAFVEQLDYLKDLGVTHVQLLPVLSYFYANELDKTRSTAYTSSDNNYNWGYDPQHYFALSGMYSANPNDPALRIAELKNLVNEIHKRGMGVIFDVVYNHTARTYLFEDLEPNYYHFMNADGTARESFGGGRLGTTHAMSRRILVDSITYLTREFKVDGFRFDMMGDHDAAAIEQAFKAAKAINPNTIMIGEGWRTYQGDEGKKEIAADQDWMKATNTVGVFSDDIRNTLKSGFPNEGTAAFITGGAKNLEGLFKTIKAQPSNFEADAPGDVVQYIAAHDNLTLHDVIAKSINKDPKVAEEEIHKRIRLGNTMILTAQGTAFIHSGQEYGRTKQLLNPDYKTKVSDDKVPNKATLIDAVAQYPYFIHDSYDSSDAVNHFDWAKATDSIAHPISNQTKAYTQGLIALRRSTDAFTKATKAEVDRDVTLITQAGQDGIQQEDLIMGYQTVASNGDRYAVFVNADNKTRKVVLPQAYRYLLGAQVLADAEQVGVTAIAKPKGVQFTKEGLTIDGLTALVLKVSSKTANPSQQKSQTDNHQTKTPDGSKDLDKSLMTRPKRAKTNQKLPKTGEAPSKGLLAAGVALLLLAISLLMKRQKD
glycan array binding signal (z-score) [1]: -0.001
glycan array binding signal (z-score) [2]: -1.23
glycan array binding signal (z-score) [3]: 0.591
glycan array binding signal (z-score) [4]: -1.61
glycan array binding signal (z-score) [5]: -0.475
glycan array binding signal (z-score) [6]: 0.535
glycan array binding signal (z-score) [7]: -0.232
glycan array binding signal (z-score) [8]: 0.267
glycan array binding signal (z-score) [9]: -0.868
glycan array binding signal (z-score) [10]: 1.53
glycan array binding signal (z-score) [11]: -0.409
glycan array binding signal (z-score) [12]: -0.553
glycan array binding signal (z-score) [13]: -0.262
glycan array binding signal (z-score) [14]: -1.33
glycan array binding signal (z-score) [15]: -0.571
glycan array binding signal (z-score) [16]: -0.652
glycan array binding signal (z-score) [17]: 0.569
glycan array binding signal (z-score) [18]: -1.05
glycan array binding signal (z-score) [19]: -0.862
glycan array binding signal (z-score) [20]: 1.61
glycan array binding signal (z-score) [21]: -0.129
glycan array binding signal (z-score) [22]: 0.645
glycan array binding signal (z-score) [23]: -0.432
glycan array binding signal (z-score) [24]: -1.67
glycan array binding signal (z-score) [25]: 0.258
glycan array binding signal (z-score) [26]: 0.02
glycan array binding signal (z-score) [27]: -0.881
glycan array binding signal (z-score) [28]: 0.15
glycan array binding signal (z-score) [29]: -0.151
glycan array binding signal (z-score) [30]: -0.078
